Results are given in words; binding and its absence hold for the method and conditions named. Binding seen in cells or lysates may run through a third protein. Some entries that bind do so weakly or less than the wild type. Sequences can lack the tags named with a protein.
T1: CESA1, full length, split-YFP (BiFC) fusion (Arabidopsis thaliana) (UniProt O48946)
T1 sequence: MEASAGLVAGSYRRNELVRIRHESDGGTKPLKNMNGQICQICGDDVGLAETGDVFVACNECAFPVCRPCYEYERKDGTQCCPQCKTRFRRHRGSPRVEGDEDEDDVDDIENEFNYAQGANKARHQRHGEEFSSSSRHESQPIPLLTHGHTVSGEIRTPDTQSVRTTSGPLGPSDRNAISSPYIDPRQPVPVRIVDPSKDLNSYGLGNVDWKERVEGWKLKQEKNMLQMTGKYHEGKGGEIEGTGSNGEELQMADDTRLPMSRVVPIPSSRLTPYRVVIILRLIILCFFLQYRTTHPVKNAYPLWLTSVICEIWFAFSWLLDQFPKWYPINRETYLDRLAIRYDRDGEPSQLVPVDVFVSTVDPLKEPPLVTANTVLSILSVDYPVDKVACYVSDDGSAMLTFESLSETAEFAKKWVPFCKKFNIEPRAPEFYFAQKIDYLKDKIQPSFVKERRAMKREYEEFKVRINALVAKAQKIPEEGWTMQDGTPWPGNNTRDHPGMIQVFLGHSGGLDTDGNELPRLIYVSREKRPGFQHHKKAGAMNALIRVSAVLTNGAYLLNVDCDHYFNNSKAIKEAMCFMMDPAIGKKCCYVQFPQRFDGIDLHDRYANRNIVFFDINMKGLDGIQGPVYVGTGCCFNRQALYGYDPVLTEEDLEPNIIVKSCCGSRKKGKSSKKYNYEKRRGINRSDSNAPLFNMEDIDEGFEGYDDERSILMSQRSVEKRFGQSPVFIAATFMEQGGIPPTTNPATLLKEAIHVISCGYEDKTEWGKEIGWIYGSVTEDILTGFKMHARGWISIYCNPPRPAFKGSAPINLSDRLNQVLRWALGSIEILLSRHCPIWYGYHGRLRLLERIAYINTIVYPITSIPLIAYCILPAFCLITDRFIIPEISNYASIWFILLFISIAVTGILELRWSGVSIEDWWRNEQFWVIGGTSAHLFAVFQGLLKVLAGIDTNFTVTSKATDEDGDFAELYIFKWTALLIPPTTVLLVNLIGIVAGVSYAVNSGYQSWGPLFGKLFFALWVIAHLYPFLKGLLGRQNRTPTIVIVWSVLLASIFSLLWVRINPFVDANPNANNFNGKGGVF

T2: CESA7, full length, split-YFP (BiFC) fusion (Arabidopsis thaliana) (UniProt Q9SWW6)
T2 sequence: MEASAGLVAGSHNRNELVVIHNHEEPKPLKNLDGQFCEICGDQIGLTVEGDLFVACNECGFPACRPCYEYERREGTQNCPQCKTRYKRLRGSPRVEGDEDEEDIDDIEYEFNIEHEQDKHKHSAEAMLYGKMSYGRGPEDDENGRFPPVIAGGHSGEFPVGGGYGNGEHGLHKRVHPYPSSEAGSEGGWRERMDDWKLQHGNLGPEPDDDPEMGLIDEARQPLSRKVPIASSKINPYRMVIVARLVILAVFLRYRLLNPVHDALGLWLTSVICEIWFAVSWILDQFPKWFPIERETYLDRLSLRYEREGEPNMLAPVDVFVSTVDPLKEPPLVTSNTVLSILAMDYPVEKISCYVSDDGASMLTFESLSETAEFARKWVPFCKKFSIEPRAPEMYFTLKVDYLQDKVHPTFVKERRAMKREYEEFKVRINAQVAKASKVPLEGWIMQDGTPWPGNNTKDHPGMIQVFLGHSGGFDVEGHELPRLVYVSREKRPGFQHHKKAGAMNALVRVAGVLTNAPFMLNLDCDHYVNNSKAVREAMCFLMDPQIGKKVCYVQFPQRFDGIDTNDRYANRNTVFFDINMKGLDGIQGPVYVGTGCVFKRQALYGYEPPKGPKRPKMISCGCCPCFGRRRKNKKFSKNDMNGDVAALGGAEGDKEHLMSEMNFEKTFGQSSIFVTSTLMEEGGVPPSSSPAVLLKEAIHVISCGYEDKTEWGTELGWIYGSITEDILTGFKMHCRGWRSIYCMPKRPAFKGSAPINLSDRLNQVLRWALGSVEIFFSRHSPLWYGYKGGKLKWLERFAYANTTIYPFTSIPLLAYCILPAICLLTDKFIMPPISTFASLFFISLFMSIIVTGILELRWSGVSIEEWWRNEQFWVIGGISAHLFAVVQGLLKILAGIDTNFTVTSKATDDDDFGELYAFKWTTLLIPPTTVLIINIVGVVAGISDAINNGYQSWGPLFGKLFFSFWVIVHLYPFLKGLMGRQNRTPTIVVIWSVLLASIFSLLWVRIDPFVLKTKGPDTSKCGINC

T3: KORRIGAN1 (KOR1), full length, split-YFP (BiFC) fusion (Arabidopsis thaliana) (UniProt Q38890)
T3 sequence: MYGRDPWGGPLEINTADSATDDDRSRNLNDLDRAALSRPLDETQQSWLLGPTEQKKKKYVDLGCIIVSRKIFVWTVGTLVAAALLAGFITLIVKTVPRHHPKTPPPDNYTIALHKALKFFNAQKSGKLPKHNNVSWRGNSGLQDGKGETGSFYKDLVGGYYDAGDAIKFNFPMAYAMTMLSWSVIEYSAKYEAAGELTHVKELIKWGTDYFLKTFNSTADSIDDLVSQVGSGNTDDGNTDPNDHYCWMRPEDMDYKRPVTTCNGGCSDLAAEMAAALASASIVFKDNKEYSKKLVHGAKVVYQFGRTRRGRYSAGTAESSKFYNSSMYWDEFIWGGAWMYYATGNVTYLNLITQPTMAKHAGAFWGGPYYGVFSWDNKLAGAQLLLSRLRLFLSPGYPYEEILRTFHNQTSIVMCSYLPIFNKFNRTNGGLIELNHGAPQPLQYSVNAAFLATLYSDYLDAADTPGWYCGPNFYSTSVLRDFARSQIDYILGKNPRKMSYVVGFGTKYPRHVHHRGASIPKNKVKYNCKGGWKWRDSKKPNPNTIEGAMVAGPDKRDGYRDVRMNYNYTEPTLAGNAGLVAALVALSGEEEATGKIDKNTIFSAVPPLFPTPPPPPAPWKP


Experiments:
Experiment in all cases: split reporter; BiFC: Y/N and Y/C fragments of YFP each linked to the N-terminus of the proteins, transiently expressed in leaves of 3-week-old N. benthamiana; YFP fluorescence by confocal microscopy 3 days after infiltration
[1] = molecular target: T1, CESA1, full length, split-YFP (BiFC) fusion (Arabidopsis thaliana)
[2] = molecular target: T2, CESA7, full length, split-YFP (BiFC) fusion (Arabidopsis thaliana)
[3] = molecular target: T3, KORRIGAN1 (KOR1), full length, split-YFP (BiFC) fusion (Arabidopsis thaliana)

Row | binding [1] | binding [2] | binding [3] | Binder
1 | binds | no binding | binds | KORRIGAN1 (KOR1), full length, split-YFP (BiFC) fusion (protein, UniProt Q38890 1-621) MYGRDPWGGPLEINTADSATDDDRSRNLNDLDRAALSRPLDETQQSWLLGPTEQKKKKYVDLGCIIVSRKIFVWTVGTLVAAALLAGFITLIVKTVPRHHPKTPPPDNYTIALHKALKFFNAQKSGKLPKHNNVSWRGNSGLQDGKGETGSFYKDLVGGYYDAGDAIKFNFPMAYAMTMLSWSVIEYSAKYEAAGELTHVKELIKWGTDYFLKTFNSTADSIDDLVSQVGSGNTDDGNTDPNDHYCWMRPEDMDYKRPVTTCNGGCSDLAAEMAAALASASIVFKDNKEYSKKLVHGAKVVYQFGRTRRGRYSAGTAESSKFYNSSMYWDEFIWGGAWMYYATGNVTYLNLITQPTMAKHAGAFWGGPYYGVFSWDNKLAGAQLLLSRLRLFLSPGYPYEEILRTFHNQTSIVMCSYLPIFNKFNRTNGGLIELNHGAPQPLQYSVNAAFLATLYSDYLDAADTPGWYCGPNFYSTSVLRDFARSQIDYILGKNPRKMSYVVGFGTKYPRHVHHRGASIPKNKVKYNCKGGWKWRDSKKPNPNTIEGAMVAGPDKRDGYRDVRMNYNYTEPTLAGNAGLVAALVALSGEEEATGKIDKNTIFSAVPPLFPTPPPPPAPWKP
2 | binds | no binding |  | KIFVWTVGTLVAAALLAGFITLIVK (domain or fragment, UniProt Q38890 70-94) [KOR1TMD (AA 70 to 94), split-YFP (BiFC) fusion]
3 | binds | no binding | binds | KOR1C (AA 70 to 621), split-YFP (BiFC) fusion (domain or fragment, UniProt Q38890 70-621) KIFVWTVGTLVAAALLAGFITLIVKTVPRHHPKTPPPDNYTIALHKALKFFNAQKSGKLPKHNNVSWRGNSGLQDGKGETGSFYKDLVGGYYDAGDAIKFNFPMAYAMTMLSWSVIEYSAKYEAAGELTHVKELIKWGTDYFLKTFNSTADSIDDLVSQVGSGNTDDGNTDPNDHYCWMRPEDMDYKRPVTTCNGGCSDLAAEMAAALASASIVFKDNKEYSKKLVHGAKVVYQFGRTRRGRYSAGTAESSKFYNSSMYWDEFIWGGAWMYYATGNVTYLNLITQPTMAKHAGAFWGGPYYGVFSWDNKLAGAQLLLSRLRLFLSPGYPYEEILRTFHNQTSIVMCSYLPIFNKFNRTNGGLIELNHGAPQPLQYSVNAAFLATLYSDYLDAADTPGWYCGPNFYSTSVLRDFARSQIDYILGKNPRKMSYVVGFGTKYPRHVHHRGASIPKNKVKYNCKGGWKWRDSKKPNPNTIEGAMVAGPDKRDGYRDVRMNYNYTEPTLAGNAGLVAALVALSGEEEATGKIDKNTIFSAVPPLFPTPPPPPAPWKP
4 | binds | no binding | binds | KOR1N (AA 1 to 94), split-YFP (BiFC) fusion (domain or fragment, UniProt Q38890 1-94) MYGRDPWGGPLEINTADSATDDDRSRNLNDLDRAALSRPLDETQQSWLLGPTEQKKKKYVDLGCIIVSRKIFVWTVGTLVAAALLAGFITLIVK
